Measured values published in publication PMC6697728.

By UniProt entry, the sequences of proteins in these tests, tags left out. Residues count along the entry.
UniProt P29323, residues 19-1055: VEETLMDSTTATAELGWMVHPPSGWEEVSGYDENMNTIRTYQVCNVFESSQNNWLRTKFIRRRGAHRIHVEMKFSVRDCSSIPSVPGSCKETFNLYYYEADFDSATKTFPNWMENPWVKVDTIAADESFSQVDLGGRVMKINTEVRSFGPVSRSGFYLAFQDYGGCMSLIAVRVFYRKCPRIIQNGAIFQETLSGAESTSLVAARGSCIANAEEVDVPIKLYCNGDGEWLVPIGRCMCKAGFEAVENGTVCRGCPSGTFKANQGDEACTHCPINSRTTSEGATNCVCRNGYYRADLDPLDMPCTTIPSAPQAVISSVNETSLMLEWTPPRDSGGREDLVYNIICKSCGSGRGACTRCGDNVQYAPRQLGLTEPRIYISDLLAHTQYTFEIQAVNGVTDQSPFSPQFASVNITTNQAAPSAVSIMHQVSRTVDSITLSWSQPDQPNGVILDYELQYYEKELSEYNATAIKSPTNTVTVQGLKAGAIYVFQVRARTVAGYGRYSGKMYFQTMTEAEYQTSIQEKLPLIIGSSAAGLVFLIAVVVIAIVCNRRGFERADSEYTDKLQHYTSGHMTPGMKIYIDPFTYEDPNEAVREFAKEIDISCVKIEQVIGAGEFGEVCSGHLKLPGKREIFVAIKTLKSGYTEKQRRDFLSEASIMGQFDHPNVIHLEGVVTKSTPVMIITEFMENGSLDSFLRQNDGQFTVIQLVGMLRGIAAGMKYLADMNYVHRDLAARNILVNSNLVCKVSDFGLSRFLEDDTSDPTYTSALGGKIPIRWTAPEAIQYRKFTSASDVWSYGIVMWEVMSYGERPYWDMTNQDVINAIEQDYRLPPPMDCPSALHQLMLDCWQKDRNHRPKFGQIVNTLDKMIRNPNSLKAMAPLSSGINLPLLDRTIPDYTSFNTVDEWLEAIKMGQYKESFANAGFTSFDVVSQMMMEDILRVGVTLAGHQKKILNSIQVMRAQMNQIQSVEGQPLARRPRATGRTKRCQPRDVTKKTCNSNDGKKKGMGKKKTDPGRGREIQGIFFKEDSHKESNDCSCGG
UniProt P46108: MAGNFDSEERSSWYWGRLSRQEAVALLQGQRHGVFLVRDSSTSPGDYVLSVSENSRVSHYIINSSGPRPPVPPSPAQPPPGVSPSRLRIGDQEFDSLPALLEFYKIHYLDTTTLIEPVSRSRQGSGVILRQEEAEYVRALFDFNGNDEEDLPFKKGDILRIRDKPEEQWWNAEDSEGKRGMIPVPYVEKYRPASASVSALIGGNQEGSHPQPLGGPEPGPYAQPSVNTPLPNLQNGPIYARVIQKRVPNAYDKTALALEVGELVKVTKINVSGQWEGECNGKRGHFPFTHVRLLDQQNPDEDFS
UniProt Q04721, residues 26-2471: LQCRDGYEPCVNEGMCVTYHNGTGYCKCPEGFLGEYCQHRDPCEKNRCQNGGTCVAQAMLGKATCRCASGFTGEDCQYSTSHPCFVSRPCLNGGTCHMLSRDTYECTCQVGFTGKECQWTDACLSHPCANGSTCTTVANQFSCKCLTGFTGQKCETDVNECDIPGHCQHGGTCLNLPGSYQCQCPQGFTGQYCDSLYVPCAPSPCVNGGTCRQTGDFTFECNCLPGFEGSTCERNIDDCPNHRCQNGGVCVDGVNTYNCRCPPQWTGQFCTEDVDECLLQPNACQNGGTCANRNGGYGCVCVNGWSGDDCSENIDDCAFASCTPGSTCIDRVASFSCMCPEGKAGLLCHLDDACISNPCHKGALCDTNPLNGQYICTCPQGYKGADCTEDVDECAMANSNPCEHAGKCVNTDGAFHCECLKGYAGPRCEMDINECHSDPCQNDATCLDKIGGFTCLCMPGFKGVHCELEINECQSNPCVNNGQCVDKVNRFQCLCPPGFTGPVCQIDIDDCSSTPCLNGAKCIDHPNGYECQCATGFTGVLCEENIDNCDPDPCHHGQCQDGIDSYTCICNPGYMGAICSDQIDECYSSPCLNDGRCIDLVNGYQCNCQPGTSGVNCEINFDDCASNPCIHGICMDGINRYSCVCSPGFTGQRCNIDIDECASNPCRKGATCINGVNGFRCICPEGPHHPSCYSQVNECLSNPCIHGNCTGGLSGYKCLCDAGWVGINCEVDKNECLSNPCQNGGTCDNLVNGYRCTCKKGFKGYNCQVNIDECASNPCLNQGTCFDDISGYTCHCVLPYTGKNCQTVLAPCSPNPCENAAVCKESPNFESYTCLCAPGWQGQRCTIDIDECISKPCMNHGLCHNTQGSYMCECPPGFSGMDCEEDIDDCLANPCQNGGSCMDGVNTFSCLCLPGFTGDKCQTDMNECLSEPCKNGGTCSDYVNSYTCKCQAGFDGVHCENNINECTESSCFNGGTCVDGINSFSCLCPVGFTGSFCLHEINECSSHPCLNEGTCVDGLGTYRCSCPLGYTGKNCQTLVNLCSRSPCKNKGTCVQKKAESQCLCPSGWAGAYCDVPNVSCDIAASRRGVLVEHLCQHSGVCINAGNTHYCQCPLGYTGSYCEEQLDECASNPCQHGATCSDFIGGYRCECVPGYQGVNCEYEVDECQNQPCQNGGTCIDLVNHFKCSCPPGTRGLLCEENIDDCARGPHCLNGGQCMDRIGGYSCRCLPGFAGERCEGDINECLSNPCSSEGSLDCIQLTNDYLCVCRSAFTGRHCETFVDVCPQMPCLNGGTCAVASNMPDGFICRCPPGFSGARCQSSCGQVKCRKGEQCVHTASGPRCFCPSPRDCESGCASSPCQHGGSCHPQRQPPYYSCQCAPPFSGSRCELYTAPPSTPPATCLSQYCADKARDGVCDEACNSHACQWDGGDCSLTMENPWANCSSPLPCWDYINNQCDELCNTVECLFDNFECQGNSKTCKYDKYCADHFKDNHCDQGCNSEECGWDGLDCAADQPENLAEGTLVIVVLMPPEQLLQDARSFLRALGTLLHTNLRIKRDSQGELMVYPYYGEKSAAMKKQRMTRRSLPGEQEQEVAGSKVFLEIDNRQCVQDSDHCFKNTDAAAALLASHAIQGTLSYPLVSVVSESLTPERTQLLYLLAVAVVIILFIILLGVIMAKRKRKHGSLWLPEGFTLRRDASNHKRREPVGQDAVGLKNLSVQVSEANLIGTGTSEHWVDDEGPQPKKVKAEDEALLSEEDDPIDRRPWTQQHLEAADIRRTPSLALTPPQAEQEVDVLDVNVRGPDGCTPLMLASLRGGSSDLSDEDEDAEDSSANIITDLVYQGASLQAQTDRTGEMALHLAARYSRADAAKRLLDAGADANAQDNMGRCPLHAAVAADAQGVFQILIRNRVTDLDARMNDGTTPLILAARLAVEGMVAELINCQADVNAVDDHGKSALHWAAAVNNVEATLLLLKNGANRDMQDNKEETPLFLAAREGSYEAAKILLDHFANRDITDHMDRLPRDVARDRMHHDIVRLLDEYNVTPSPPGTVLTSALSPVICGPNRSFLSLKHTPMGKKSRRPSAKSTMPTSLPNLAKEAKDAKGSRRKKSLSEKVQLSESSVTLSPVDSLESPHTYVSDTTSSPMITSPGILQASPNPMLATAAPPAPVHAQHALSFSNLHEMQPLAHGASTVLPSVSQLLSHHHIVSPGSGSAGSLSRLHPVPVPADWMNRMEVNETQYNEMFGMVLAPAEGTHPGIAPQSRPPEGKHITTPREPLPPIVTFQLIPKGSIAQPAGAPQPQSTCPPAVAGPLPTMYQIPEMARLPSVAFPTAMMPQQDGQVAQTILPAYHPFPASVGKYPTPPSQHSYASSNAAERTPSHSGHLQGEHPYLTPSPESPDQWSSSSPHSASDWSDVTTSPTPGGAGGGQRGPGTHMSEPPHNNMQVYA
UniProt P27986: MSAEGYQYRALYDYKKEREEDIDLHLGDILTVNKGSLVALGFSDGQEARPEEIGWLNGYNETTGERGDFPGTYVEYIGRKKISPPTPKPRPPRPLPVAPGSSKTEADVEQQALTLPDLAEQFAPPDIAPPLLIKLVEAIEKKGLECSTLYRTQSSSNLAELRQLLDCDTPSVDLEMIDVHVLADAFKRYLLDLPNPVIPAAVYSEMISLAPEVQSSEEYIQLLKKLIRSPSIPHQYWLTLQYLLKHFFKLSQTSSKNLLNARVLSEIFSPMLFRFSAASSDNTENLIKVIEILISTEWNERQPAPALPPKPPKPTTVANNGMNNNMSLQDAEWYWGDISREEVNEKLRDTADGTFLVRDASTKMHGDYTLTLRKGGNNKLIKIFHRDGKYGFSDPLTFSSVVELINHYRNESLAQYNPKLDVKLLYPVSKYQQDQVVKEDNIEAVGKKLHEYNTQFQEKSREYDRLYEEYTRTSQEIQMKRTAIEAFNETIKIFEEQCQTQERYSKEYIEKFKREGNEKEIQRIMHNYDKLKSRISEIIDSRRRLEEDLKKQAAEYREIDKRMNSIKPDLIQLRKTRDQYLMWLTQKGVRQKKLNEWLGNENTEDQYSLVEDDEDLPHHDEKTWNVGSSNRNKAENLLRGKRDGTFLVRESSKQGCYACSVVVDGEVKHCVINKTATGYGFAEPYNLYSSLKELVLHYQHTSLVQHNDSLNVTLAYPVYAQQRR
UniProt O43639: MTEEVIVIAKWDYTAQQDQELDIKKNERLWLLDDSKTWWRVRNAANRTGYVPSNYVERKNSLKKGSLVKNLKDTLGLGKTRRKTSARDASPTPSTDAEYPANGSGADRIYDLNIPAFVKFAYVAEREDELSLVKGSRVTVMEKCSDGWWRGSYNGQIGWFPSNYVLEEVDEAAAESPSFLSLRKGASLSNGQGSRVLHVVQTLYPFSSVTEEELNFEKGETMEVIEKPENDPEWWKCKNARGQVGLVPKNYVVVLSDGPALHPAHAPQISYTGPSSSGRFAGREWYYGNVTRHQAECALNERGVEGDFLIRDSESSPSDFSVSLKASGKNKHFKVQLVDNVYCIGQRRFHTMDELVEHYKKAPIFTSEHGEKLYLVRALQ
UniProt Q96T51: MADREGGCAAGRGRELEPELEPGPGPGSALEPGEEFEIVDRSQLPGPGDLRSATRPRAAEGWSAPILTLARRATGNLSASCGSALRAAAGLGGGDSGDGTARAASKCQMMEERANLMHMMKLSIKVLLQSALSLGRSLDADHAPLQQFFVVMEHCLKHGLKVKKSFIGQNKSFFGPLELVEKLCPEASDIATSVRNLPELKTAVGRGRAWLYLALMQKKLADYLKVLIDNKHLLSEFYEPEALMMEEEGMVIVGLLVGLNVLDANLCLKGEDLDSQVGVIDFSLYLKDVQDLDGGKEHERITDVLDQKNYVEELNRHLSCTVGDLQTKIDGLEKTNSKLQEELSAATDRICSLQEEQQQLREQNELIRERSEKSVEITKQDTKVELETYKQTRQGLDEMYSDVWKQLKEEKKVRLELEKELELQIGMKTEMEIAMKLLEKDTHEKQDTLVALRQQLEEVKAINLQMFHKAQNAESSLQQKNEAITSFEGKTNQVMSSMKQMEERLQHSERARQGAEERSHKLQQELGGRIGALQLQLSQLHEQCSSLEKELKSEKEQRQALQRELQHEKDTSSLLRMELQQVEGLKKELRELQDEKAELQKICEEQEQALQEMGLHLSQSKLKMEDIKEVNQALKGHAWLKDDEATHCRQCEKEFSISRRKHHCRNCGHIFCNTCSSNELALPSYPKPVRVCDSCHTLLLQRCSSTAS

target: EphB2-BirA*-FLAG (UniProt P29323); assay: proximity labelling; BioID: EphB2-BirA*-FLAG induced with tetracycline in Flp-In T-REx HEK293; 6 h with 50 uM biotin and pre-clustered eB2-Fc or Fc (1.5 ug/mL) or medium; RIPA lysis, streptavidin pull-down, mass spectrometry; SAINT against BirA*-FLAG-EGFP and empty vector, BFDR <= 0.01

Row | Substance | binding
1 | CRK (from UniProt P46108 1-304) | binds
2 | Notch2 (from UniProt Q04721 26-2471) | binds
3 | Pik3r1 (from UniProt P27986 1-724) | binds

More lines, now with the values ahead:

Row | binding | Substance
4 | binds | HD-PTP (endogenous, HEK293) (from UniProt Q9H3S7 1-1636)
5 | binds | Nck adaptor protein NCK2 (from UniProt O43639 1-380)
6 | binds | RUN and FYVE domain-containing protein 1 (RUFY1) (from UniProt Q96T51 1-708)

Results are given in words; binding and its absence hold for the method and conditions named. Binding seen in cells or lysates may run through a third protein. Here binding means that the protein was enriched with, or labelled near, the bait; the list need not be complete.
